The supplement of paper PMC12889115
The other results are listed elsewhere or left out. Values are raw readings; no control value is given beside them.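 First-pass screen: polymyxin B was added at a level that permeabilizes the Salmonella outer membrane while sparing the inner membrane. DMSO wells, with and without polymyxin B, defined maximum growth. Because plates differed from one another, each plate's data were ranked separately and the compounds with the lowest OD600 were carried forward as hits.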

Tested on: Salmonella enterica serovar Typhimurium SL1344
Experiment: bacterial growth OD600 after 18 h with compound and polymyxin B; higher = more bacterial growth (less inhibition)
Conditions: 50 µM, Mueller-Hinton broth

| Compound | bacterial growth OD600 (polymyxin B 0.75 µg/mL) | bacterial growth OD600 (polymyxin B 1 µg/mL) |
| --- | --- | --- |
| Cc1ccccc1Oc1ncccc1CNC(=O)C1CCN(C)CC1 | 0.818 | – |
| CN(CC1CCN(CCc2ccc(F)cc2)CC1)C(=O)c1scc2c1OCCO2 | – | 1.02 |
| O=C(NC1CCCN(CCc2ccccc2)C1)c1cccc(N2CCOCC2)c1 (stereo unspecified) | 0.947 | – |
| COCCCC1CCN(Cc2c[nH]nc2-c2cc(OC)c(OC)c(OC)c2)CC1 | – | 0.766 |
| COc1ccc(OC2CCN(C3CCCC3)CC2)c(C(=O)NCC(C)O)c1 (stereo unspecified) | – | 1.06 |
| COCc1ccc(CN2CCOc3ccc(C(O)C(c4ccccc4)c4ccccc4)cc3C2)o1 (stereo unspecified) | 0.776 | – |
| Cc1occc1C(=O)N1CCC(C2CCN(Cc3cccnc3)CC2)C1 (stereo unspecified) | 1.01 | – |
| CCS(=O)(=O)c1ncc(CN(C)Cc2cccc(OC)c2)n1CCc1ccccc1 | 0.531 | – |
| C#Cc1ccc([C@@H]2C[C@H]3CN(Cc4cccc(Cl)c4)C(=O)[C@]34CCCN24)cc1 | 0.623 | – |
| COc1ccc(CCCNC(=O)c2ccc(N3CCCOCC3)nc2)cc1 | – | 1.01 |
| Cc1nc(CC(=O)N2CCCC(Nc3ccc(C)c(C)c3)C2)cs1 (stereo unspecified) | – | 0.955 |
| Cc1ccc(-c2nn(-c3cccc(F)c3)cc2CN(C)C(C)c2nccs2)o1 (stereo unspecified) | – | 0.182 |
| CCOc1ccc(CN2CCN(Cc3cccc(C(C)=O)c3)CC2CCO)cc1 (stereo unspecified) | – | 0.827 |
| CC1CCN(CC2(O)CCCN(Cc3cccc(F)c3F)C2=O)CC1 (stereo unspecified) | – | 0.882 |
| CCC1CN(Cc2ccc(OC)c(O)c2)Cc2cc(OC)ccc2O1 (stereo unspecified) | 0.695 | – |
| O=C(CCN1CCCO1)N1CCOC(Cc2ccccc2Cl)C1 (stereo unspecified) | – | 0.975 |

| Compound | bacterial growth OD600 (polymyxin B 0.75 µg/mL) | bacterial growth OD600 (polymyxin B 1 µg/mL) |
| --- | --- | --- |
| COc1cccc(CCC2CCCN(Cc3ccncc3)C2)c1 (stereo unspecified) | 0.842 | – |
| O=C(CC1(c2cccc(F)c2)CC(=O)N(Cc2cccnc2)C1=O)N1CCN(C2CCCCC2)CC1 (stereo unspecified) | 0.791 | – |
| CC(C)(CNC(=O)c1cc(Cn2ccc3ccccc32)[nH]n1)N1CCOCC1 | – | 1 |
| Cc1cccc(CNC(=O)c2ccc(OC3CCN(C(=O)C4CC4)CC3)cc2)c1 | – | 0.831 |
| COCCN1C(=O)CC(CC(=O)N2CCc3c(Cl)cccc3C2)(c2ccccc2F)C1=O (stereo unspecified) | 0.596 | – |
| CC(=O)c1ccc(C(=O)N(C)C2CCCN(CCc3ccccc3)C2)cc1 (stereo unspecified) | – | 1.27 |
| CO[C@H]1[C@H](NC(=O)c2ccccn2)c2ccccc2C12CCN(C(=O)CN1CCCC1=O)CC2 | 0.852 | – |
| CN(CCc1ccccc1)Cc1nc(-c2ccc(C(F)(F)F)cc2)no1 | – | 0.971 |
| CCC(=O)N(Cc1cc2c(OC)ccc(OC)c2nc1N1CCOCC1)CC1COc2ccccc2O1 (stereo unspecified) | 0.005 | – |
| O=C(c1ccccc1)N1CCCC(Nc2ccccc2)C1 (stereo unspecified) | – | 0.82 |
| Oc1ccc(CN2CC[C@@H](N3CCN(c4ccccc4F)CC3)[C@H](O)C2)cc1 | 0.81 | – |
| CC(=O)N1CCC[C@H]1C(=O)NCc1cccnc1-n1cnc2ccccc21 | – | 0.895 |
| COCCN1C(=O)CC(CC(=O)N2CCC(C(O)c3ccccc3)CC2)(c2ccccc2F)C1=O (stereo unspecified) | 0.872 | – |
| FC(F)(F)c1ccc(-c2cnnc(N3CCCC3c3nccs3)n2)cc1 (stereo unspecified) | 0.695 | – |
| O=C1CC(NC2CCOCC2)CN1CCc1ccccc1 (stereo unspecified) | – | 1.02 |

Nine of the compounds above, as comma-separated lines:
Compound,bacterial growth OD600 (polymyxin B 0.75 µg/mL),bacterial growth OD600 (polymyxin B 1 µg/mL)
CC(C)(CNC(=O)c1cc(Cn2ccc3ccccc32)[nH]n1)N1CCOCC1,–,1
Cc1cccc(CNC(=O)c2ccc(OC3CCN(C(=O)C4CC4)CC3)cc2)c1,–,0.831
COCCN1C(=O)CC(CC(=O)N2CCc3c(Cl)cccc3C2)(c2ccccc2F)C1=O (stereo unspecified),0.596,–
CC(=O)c1ccc(C(=O)N(C)C2CCCN(CCc3ccccc3)C2)cc1 (stereo unspecified),–,1.27
CO[C@H]1[C@H](NC(=O)c2ccccn2)c2ccccc2C12CCN(C(=O)CN1CCCC1=O)CC2,0.852,–
CN(CCc1ccccc1)Cc1nc(-c2ccc(C(F)(F)F)cc2)no1,–,0.971
CCC(=O)N(Cc1cc2c(OC)ccc(OC)c2nc1N1CCOCC1)CC1COc2ccccc2O1 (stereo unspecified),0.005,–
O=C(c1ccccc1)N1CCCC(Nc2ccccc2)C1 (stereo unspecified),–,0.82
Oc1ccc(CN2CC[C@@H](N3CCN(c4ccccc4F)CC3)[C@H](O)C2)cc1,0.81,–
